In PubChem BioAssay AID1259354 (Paczesny and Yang Labs, IUPUI and University of Michigan, 2018):
Among all 78,000 compounds or so, about 1,800 (2.3%) were called active. Inconclusive means that the source gave no clear call. Such entries were picked first, then a sample of the others. Rule as the data show it: active = inhibition above about 30%; inconclusive = mostly about 10% to 28%; inactive = weaker than that.

Sequences of proteins named here, by UniProt entry; tags and fusion partners are left off. A change or cut given only in a name is not applied to a line headed by its entry.
UniProt Q01638: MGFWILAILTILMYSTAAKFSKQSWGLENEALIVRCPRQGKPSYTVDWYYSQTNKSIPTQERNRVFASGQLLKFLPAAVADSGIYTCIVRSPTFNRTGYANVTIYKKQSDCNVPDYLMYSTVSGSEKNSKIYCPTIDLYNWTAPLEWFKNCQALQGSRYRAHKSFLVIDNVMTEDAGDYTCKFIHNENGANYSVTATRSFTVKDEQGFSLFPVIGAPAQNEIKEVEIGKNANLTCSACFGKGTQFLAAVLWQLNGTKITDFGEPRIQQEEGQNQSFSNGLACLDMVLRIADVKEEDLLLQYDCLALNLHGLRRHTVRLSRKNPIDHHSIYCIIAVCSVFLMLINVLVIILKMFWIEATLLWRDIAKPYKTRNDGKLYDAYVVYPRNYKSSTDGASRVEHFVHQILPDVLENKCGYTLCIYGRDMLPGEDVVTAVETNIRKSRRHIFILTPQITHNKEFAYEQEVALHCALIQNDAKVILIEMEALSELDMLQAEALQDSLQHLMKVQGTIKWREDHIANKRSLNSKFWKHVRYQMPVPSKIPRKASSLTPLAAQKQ

What follows are compounds tested against Interleukin-1 receptor-like 1 (Homo sapiens) (UniProt Q01638) (assay: blocks human ST2 binding to IL-33, primary screen, biochemical, AlphaLISA (AID 1259354)). Details: AlphaLISA ST2-Fc/biotin-IL-33 interaction, 1 h; at 17 µM, stronger effect = higher value.

| Compound | inhibition |
| --- | --- |
| COc1cccc(NC(=O)NC[C@H]2O[C@@H](CO)[C@@H](O)[C@H]2N2CCN(c3ccccn3)CC2)c1 | active: 36% |
| Cc1ccc(Oc2ncccc2CNC(=O)C(C)c2ccccc2)cn1 (centres undefined) | inconclusive: 13% |
| Cc1ccc(-c2ccc(C(=O)NC(C)c3cnn(C)c3)o2)cc1 (centres undefined) | inactive |
| CN1CCN(Cc2ccc3c(c2)CC(C)(C)O3)CC1C(=O)O (centres undefined) | inactive |
| CC[C@@]1(C(=O)O)C[C@H](C(=O)N2CC=CCC2)[C@H](c2ccc(OC)cc2)N1C | inconclusive: 18% |
| Cc1noc(C)c1NC(=O)c1ccc(CN2CCc3ccccc3C2)cc1 | inconclusive: 18% |
| CN(Cc1cc2n(n1)CCCNC2)Cc1cc(-c2ccncc2)no1 | inconclusive: 14% |
| Cc1cccc2nc(CSc3nncn3-c3ccccc3)c(Br)n12 | inactive |
| O=C(O)C1NC(c2cc(Cl)ccc2O)C2C(=O)N(c3ccccc3)C(=O)C12 (centres undefined) | inconclusive: 10% |
| Cc1ccc2c(c1)c(CNC1CCC3(CCNCC3)CC1)nn2C | inconclusive: 14% |
| CN(Cc1nc(Cc2ccccc2Cl)no1)CC1CCOCC1 | inactive |
| CC(C)(C)NS(=O)(=O)c1ccc2oc3ccc(S(=O)(=O)NC(C)(C)C)cc3c2c1 | inconclusive: 15% |
| O=C(CC1NC(=O)c2ccccc21)NCCc1nc2c(s1)CCC2 (centres undefined) | inconclusive: 19% |
| COc1ccc(Cl)cc1C(=O)Nc1c2c(nn1C(C)(C)C)CSC2 | inactive |
| CCOC(=O)N1CCN(c2nc(-c3cccc([N+](=O)[O-])c3)cs2)CC1 | inconclusive: 15% |
| CN(CCc1ccccn1)[C@H]1[C@@H]2OC[C@@H](O2)[C@@H](NCc2ccccc2)[C@@H]1O | inactive |
| O=C(c1ccc2nc3sc4c(c3c(=O)n2c1)CCCC4)N1CCC2(CC1)OCCO2 | inactive |
| O=C(c1cn(CCc2ccccc2)nn1)N1CCC(O)(c2cccc(C(F)(F)F)c2)CC1 | inconclusive: 18% |
| CC(C)CN(CC(C)C)C(=O)CN(C)S(=O)(=O)c1ccc2c(c1)CCC(=O)N2 | inactive |
| COc1cccc2cc(NC(=O)/C=C/c3cccc([N+](=O)[O-])c3)c(=O)oc12 | inconclusive: 23% |
| Cc1nnc(NC(=O)NCc2ccccc2-n2cncn2)s1 | inactive |
| CN1C[C@@H](NC(=O)c2ccccn2)C[C@H]1c1nc(-c2ccncc2)no1 | inactive |
| COc1cccc2cc(C(=O)Nc3ccccc3)c(=Nc3ccc(C#N)cc3)oc12 | inconclusive: 18% |
| C[C@@H](C(=O)N1Cc2cnc(-c3ccccc3)nc2C1)n1cnnn1 | inconclusive: 16% |

| Compound | inhibition |
| --- | --- |
| O=C(N[C@H]1CO[C@H]2[C@@H]1OC[C@@H]2n1nnnc1Oc1ccc(-n2ccnc2)cc1)C1CCCCC1 | inconclusive: 16% |
| O=C(COc1ccccc1)N1CCN=C1SCc1cccc(Cl)c1 | inconclusive: 11% |
| CCOc1ccc(CN2CCn3cccc3C2C)cc1CO (centres undefined) | inconclusive: 14% |
| CC(N)(Cc1ccc(O)c(O)c1)C(=O)O (centres undefined) | inconclusive: 11% |
| O=C1NC(C(=O)N2CCC(c3cc(Cc4ccccc4)[nH]n3)CC2)CO1 (centres undefined) | inconclusive: 13% |
| COC(C(=O)N(C)Cc1ccc(C)o1)c1ccccc1 (centres undefined) | inconclusive: 11% |
| CCn1cnc2cc(NCc3cccs3)ccc21 | inactive |
| COCCN[C@H]1[C@@H]2OC[C@@H](O2)[C@@H](NCc2ccc(OC(F)(F)F)cc2)[C@@H]1O | inconclusive: 12% |
| CS(=O)(=O)NC1CCN(Cc2ccc(-c3ccn[nH]3)o2)CC1 | inactive |
| Nc1c(C(=O)Nc2ccc(Cl)c(Cl)c2)sc2nc3c(cc12)CCC3 | inconclusive: 24% |
| CC(C)C(=O)N1c2ccccc2NC2=C(C(=O)CCC2)C1c1ccco1 (centres undefined) | active: 30% |
| Cc1nc2c(c(=O)n1C)CCN(C(=O)CN1CCCCC1=O)CC2 | inconclusive: 12% |
| O=C(OCCN=C1NS(=O)(=O)c2ccccc21)c1ccccc1Br | inconclusive: 19% |
| O=[N+]([O-])c1ccc2oc(-c3ccc(F)cc3)nc2c1 | inconclusive: 16% |
| C=C(C)CC(Nc1ccc(OC)cc1)c1ccco1 (centres undefined) | active: 37% |
| CN(C)C(=O)c1ccc(-c2ccccc2-c2ccccc2)nc1 | inconclusive: 14% |
| CC1CCN(C(=O)CSc2nc(-c3ccc(F)cc3)nc3c2c(=O)n(C)c(=O)n3C)CC1 | inconclusive: 10% |
| C=C(C)Cn1c(N2CCN(c3ccccc3)CC2)nc2c1c(=O)[nH]c(=O)n2C | inconclusive: 18% |
| CCOc1ccc(C(=O)Nc2cc(Cl)ccc2OC)cc1Cl | inconclusive: 17% |
| O=C(Nc1ccc(C(F)(F)F)cc1)C1(S(=O)(=O)c2ccc(Cl)cc2)CC1 | inconclusive: 13% |
| COC(=O)c1ccc(N2C(=O)CC(N3CCN(Cc4ccc(Cl)cc4)CC3)C2=O)cc1 (centres undefined) | inactive |
| O=C(NCCc1cnc2ccccn12)c1cc2n(n1)CCNC2 | inactive |
| CCCNC(=O)c1ccc2c(c1)N(Cc1ccc(C)cc1)CCS2 | inactive |
| O=C(CSc1cn(CCNC(=O)c2ccc(F)cc2)c2ccccc12)Nc1ccccc1 | inconclusive: 12% |

| Compound | inhibition |
| --- | --- |
| CCCSC1=C(C#N)C(c2ccccc2)CC(=O)N1 (centres undefined) | inconclusive: 11% |
| COc1ccc(N2CSC3=C(C#N)C(c4cc(OC)ccc4OC)CC(=O)N3C2)c(OC)c1 (centres undefined) | inconclusive: 26% |
| Cc1cc(OCC(=O)Nc2ccc(F)cc2F)cc(C)c1Br | inactive |
| COc1cc(NC(=O)CCC2CCCN(C(=O)C3=CCCCC3)C2)cc(OC)c1 (centres undefined) | inactive |
| C1=C[C@H]2C[C@@H]1C[C@H]2Cc1nc(-c2cnccn2)no1 | inactive |
| Cc1ccccc1C1CCCN1C(=O)C(C)(C)NC(=O)c1cccs1 (centres undefined) | inconclusive: 10% |
| O=C1NC(=O)c2c(NC(=O)c3c(F)cccc3F)cccc21 | inactive |
| O=C1CC(c2nc3c(s2)CCCC3)c2cc3cn[nH]c3cc2N1 (centres undefined) | inconclusive: 12% |
| COc1ccc(OC)c(C(=O)c2ccc(C(=O)NCC3Cc4cccc(-c5ncccn5)c4O3)cc2)c1 (centres undefined) | inconclusive: 17% |
| COc1cc(F)c(-c2nccn2CCCN2CCOCC2)cc1OC | inconclusive: 12% |
| Cc1nc(S(=O)(=O)N2C[C@@H]3[C@H](C2)[C@H]2CC[C@@H]3O2)cn1C | inactive |
| COc1cc(CN2CCC(O)(c3ccc(C)cn3)CC2)cc(Cl)c1OC | inconclusive: 15% |
| O=C1CC(NCc2ccccn2)CN1CCCc1ccccc1 (centres undefined) | active: 53% |
| CCOc1ccccc1NS(=O)(=O)c1cc(Br)cc2c1N(C(=O)CC)CC2 | inactive |
| CN1CCCN(Cc2ccc(Br)cc2)CC1 | inconclusive: 13% |
| CSc1nc2n(n1)C(c1ccc(N(C)C)cc1)C1=C(CC(C)(C)CC1=O)N2 (centres undefined) | inconclusive: 15% |
| CCN(CC)S(=O)(=O)c1ccc2c(c1)nc(CN1CCN(S(=O)(=O)N(C)C)CC1)n2C | inconclusive: 15% |
| COc1ccc(C2c3sc(=O)[nH]c3SC3C4CCC(C4)C23)cc1 (centres undefined) | inconclusive: 11% |
| O=[N+]([O-])c1ccc(C2=CC(c3ccccc3)n3nnnc3N2)cc1 (centres undefined) | inconclusive: 14% |
| Cc1cccn2c(=O)c3cc(C(=O)NCc4ccco4)n(C)c3nc12 | inconclusive: 16% |
| CC(C)CC(NC(=O)c1cccn(C)c1=O)c1nnc2n1CCNCC2 (centres undefined) | inconclusive: 11% |
| CC(=O)c1ccc(N=Cc2c(C)[nH]c3ccccc23)cc1 | inconclusive: 11% |
| O=C(O)CCCN1C(=O)c2cccc3cccc(c23)C1=O | inconclusive: 13% |
| Cc1cccn2cc(C(=O)N[C@@H]3C[C@H]4C(=O)NCC(=O)N4C3)nc12 | inconclusive: 10% |

| Compound | inhibition |
| --- | --- |
| CCCCNC(=O)CCS(=O)(=O)c1cc(Br)cc2c1N(C(=O)CC)CC2 | inactive |
| CCCS(=O)(=O)N1CCCC(C(=O)NCCCN2CCN(C)CC2)C1 (centres undefined) | inactive |
| CCOc1ccc(NC(C)=O)cc1[N+](=O)[O-] | inconclusive: 17% |
| Cc1nn(-c2ccc(C(C)C)cc2)c(C)c1[C@H]1C=C[C@@H](O)C1 | inactive |
| CC(=O)Nc1ccc(Cl)c(-c2nc3cc(Cl)ccc3o2)c1 | inactive |
| CC(C)(C)c1nnc(NCc2ccccc2)[nH]c1=O | inconclusive: 18% |
| CN(C)c1cccc(NC(=O)c2cc(NCc3cnn(C)c3)cc(S(=O)(=O)N3CCCC3)c2)c1 | inconclusive: 18% |
| CC(C)(C)c1cc(CCO)cc(C(C)(C)C)c1O | inactive |
| Cc1nc(CN(C)C(=O)c2ccc(CSc3ccccn3)cc2)no1 | inconclusive: 19% |
| CC(=O)N(c1ccc(F)cc1)C1C=CS(=O)(=O)C1 (centres undefined) | inactive |
| COc1ccc2c(c1)CCc1c(C(=O)Nc3cc(Br)ccc3O)noc1-2 | inconclusive: 12% |
| Cc1ccc(C2CC(c3ccccc3)n3nc(N)nc3N2)cc1 (centres undefined) | inactive |
| CSc1ccc(/C=C/c2nc3ccccc3[nH]2)cc1 | inconclusive: 18% |
| COc1cc(-c2nnc(SCC(=O)N3CCc4ccccc43)o2)cc(OC)c1OC | inactive |
| CC1=C[C@@H](CNS(=O)(=O)c2ccc(F)cc2)[C@H](C(C)C)C[C@H]1CC(=O)N(C)Cc1cccnc1 | inconclusive: 13% |
| Cc1ccc(-n2c(SCC(=O)NCc3ccccc3)nc3c(c2=O)SCC3)cc1 | inconclusive: 21% |
| Cc1cc(C(C)(C)C)ccc1OCCCCn1ccnc1 | inconclusive: 12% |
| CNC(=O)[C@@H]1C[C@@H](N)CN1C(=O)CCc1ccc(-c2ccc(C)cc2)o1 | inconclusive: 17% |
| CC(=O)c1ccc(N2CCN(C(=O)Cn3c(=O)[nH]c4ccsc4c3=O)CC2)cc1 | inactive |
| CN(C)C(=O)c1ccc2c(c1)N(CC(=O)Nc1cccc(Cl)c1)C(=O)C1CCCCN21 (centres undefined) | inactive |
| CCn1c(C(C)NC(C)=O)nc2ccccc21 (centres undefined) | inactive |
| O=c1c(NS(=O)(=O)c2cccc(F)c2)ccc2n1C[C@H]1C[C@@H]2CN(S(=O)(=O)c2ccccc2)C1 | inconclusive: 15% |
